# In paper PMC11705650:
# Protein sequences, listed by entry. Tags and fused reporters are not part of them. Lines headed by an entry give the natural chain unless they say otherwise; changes in a name come on top.
# UniProt O60260: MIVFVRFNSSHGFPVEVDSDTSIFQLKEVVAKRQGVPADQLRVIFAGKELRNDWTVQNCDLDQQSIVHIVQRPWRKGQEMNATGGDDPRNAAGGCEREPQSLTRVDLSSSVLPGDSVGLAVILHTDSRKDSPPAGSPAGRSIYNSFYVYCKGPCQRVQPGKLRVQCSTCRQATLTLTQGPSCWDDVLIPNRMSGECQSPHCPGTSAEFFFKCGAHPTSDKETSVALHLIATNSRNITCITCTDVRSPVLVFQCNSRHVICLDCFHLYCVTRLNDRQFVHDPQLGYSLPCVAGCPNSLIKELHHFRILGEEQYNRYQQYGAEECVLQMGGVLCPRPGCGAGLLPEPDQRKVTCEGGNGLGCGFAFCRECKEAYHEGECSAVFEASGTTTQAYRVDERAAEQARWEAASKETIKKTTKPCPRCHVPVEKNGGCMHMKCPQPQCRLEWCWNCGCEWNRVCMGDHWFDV
# UniProt P30281: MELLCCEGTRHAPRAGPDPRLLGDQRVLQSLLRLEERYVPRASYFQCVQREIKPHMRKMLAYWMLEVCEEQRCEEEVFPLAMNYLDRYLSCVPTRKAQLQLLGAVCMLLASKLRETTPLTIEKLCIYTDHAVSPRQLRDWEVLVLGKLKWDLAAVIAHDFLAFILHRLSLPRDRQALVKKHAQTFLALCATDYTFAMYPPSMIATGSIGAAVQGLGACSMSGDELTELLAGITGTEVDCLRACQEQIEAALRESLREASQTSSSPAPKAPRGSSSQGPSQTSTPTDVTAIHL
# UniProt P08670: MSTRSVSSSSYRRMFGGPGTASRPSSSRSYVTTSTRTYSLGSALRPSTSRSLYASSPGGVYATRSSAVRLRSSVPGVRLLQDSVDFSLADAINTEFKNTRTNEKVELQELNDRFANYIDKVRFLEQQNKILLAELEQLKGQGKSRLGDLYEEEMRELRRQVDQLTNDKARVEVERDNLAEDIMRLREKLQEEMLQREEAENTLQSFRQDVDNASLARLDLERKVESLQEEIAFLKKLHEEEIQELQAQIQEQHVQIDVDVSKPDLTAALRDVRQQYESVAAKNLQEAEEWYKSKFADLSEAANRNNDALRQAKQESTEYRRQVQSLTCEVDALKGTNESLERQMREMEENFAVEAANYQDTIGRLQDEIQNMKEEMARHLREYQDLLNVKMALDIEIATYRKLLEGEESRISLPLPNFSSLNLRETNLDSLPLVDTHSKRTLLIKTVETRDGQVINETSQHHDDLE
# Results are given in words; binding and its absence hold for the method and conditions named. In cells and extracts the contact can be indirect. Some binding calls cover weakened binding; strength is not graded here.
# Legend:
# [1] = molecular target: flag-labeled PARK2 (E3 ubiquitin ligase) (UniProt O60260); assay: co-IP; Pierce Co-Immunoprecipitation Kit; lysate of A549-DDP cells transfected with a flag-labeled plasmid (CCND3 or PARK2); anti-flag antibody; irrelevant IgG as negative control; Western blot
# [2] = molecular target: flag-labeled CCND3 (cyclin D3) (UniProt P30281); assay: as above
Substance,binding [1],binding [2]
vimentin (from UniProt P08670 1-466),binds,binds
CCND3 (cyclin D3) of A549-DDP cells (from UniProt P30281-1 1-292),binds,–
